Record: PubChem BioAssay AID720505 (Drosophila RNAi Screening Center, 2013)
The deposit covers about 20,000 reagents; this is an unselected part of those that have a named target and a result. Over the whole deposit, about 2,100 (10%) were called active. 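Raw plate signals without normalisation; calls rest on control-based scores that were not deposited; replicate 2 separates called from uncalled poorly.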 Names joined by + are all predicted targets of the reagent. The record does not give: the amount of reagent, the time to read-out.

- Assay: 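Knock-downs that reduce calcium influx once internal stores are emptied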 (primary screen)
- Cells: Drosophila S2R+ cells
- Reagents: long dsRNA against Drosophila genes
- Challenge: thapsigargin (2 µM) in calcium-free buffer to empty internal stores, then 2 mM calcium added back
- Read-out: 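Fluo-4 signal in 384-well plates read on a FLIPR after thapsigargin (2 µM, calcium-free) store depletion and 2 mM calcium add-back; unnormalised mean endpoint per well; screen run twice, selected wells retested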
- Scale: calcium signal and retest calcium signal: higher = more calcium entry after store depletion
- Hit rule: 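About 1500 genes called as lowering calcium entry, by varying amounts, judged against per-plate control wells with STIM1 as positive and Rho1 as negative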
- Calls: active = called as lowering calcium entry; inactive = not called

target | dsRNA | calcium signal, replicate 1 | calcium signal, replicate 2 | retest calcium signal, replicate 1 | retest calcium signal, replicate 2 | call
CG13250 | DRSC11698 | 103 | 206 | – | – | inactive
CG14963 | DRSC08422 | 89.2 | 120 | – | – | inactive
Psf1 (Partner of Sld Five 1) | DRSC08638 | 107 | 124 | 131 | 112 | inactive
Nup43 (Nucleoporin 43kD) | DRSC16279 | 193 | 199 | – | – | inactive
Ir94d (Ionotropic receptor 94d) | DRSC21568 | 118 | 73.7 | – | – | inactive
Ttc7 (Tetratricopeptide repeat domain 7) | DRSC04836 | 199 | 84.1 | – | – | inactive
MICU1 (Mitochondrial calcium uptake 1) | DRSC02752 | 80.9 | 184 | – | – | inactive
Rpt6R (Regulatory particle triple-A ATPase 6-related) | DRSC15431 | 201 | 139 | – | – | inactive
CG10725 | DRSC09788 | 95.4 | 70.3 | – | – | inactive
Cul4 (Cullin 4) | DRSC07243 | 129 | 147 | – | – | inactive
MTPAP (mitochondrial poly(A) polymerase) | DRSC18585 | 106 | 110 | – | – | inactive
Dtwd2 (DTW domain containing 2) | DRSC12501 | 84.6 | 167 | – | – | inactive
CG13919 | DRSC08388 | 77.2 | 89.8 | – | – | inactive
CG8229 | DRSC07114 | 132 | 140 | – | – | inactive
mio (missing oocyte) | DRSC00692 | 58.7 | 148 | – | – | active
mio (missing oocyte) | DRSC22056 | 78 | 206 | – | – | inactive
CG13065 | DRSC09948 | 72.9 | 126 | – | – | inactive
CG31955 | DRSC00285 | 148 | 101 | – | – | inactive
dpr20 (defective proboscis extension response 20) | DRSC08265 | 115 | 112 | – | – | inactive
Dis3l2 (Dis3 like 3'-5' exoribonuclease 2) | DRSC08496 | 149 | 104 | – | – | inactive
Abcd3 (ATP binding cassette subfamily D member 3) | DRSC19488 | 72.1 | 60.7 | – | – | active
Acp65Aa (Adult cuticle protein 65Aa) | DRSC09663 | 114 | 94.9 | – | – | inactive
CG42323 | DRSC19629 | 89.3 | 112 | – | – | inactive
CG42323 | DRSC21397 | 204 | 113 | – | – | inactive
scpr-A + scpr-C | DRSC15737 | 153 | 83.3 | – | – | inactive
side-IV + asRNA:CR17025 | DRSC14833 | 161 | 184 | – | – | inactive
side-IV + asRNA:CR17025 | DRSC15168 | 122 | 147 | – | – | inactive
eya (eyes absent) | DRSC03510 | 116 | 272 | – | – | inactive
CG13876 | DRSC08346 | 87.8 | 152 | – | – | inactive
CG15333 | DRSC18016 | 177 | 116 | – | – | inactive
CG15333 | DRSC18153 | 179 | 134 | – | – | inactive
Dscam2 (Down syndrome cell adhesion molecule 2) | DRSC08869 | 6948 | 137 | – | – | inactive
Dscam2 (Down syndrome cell adhesion molecule 2) | DRSC10198 | 84.4 | 71 | – | – | inactive
Dscam2 (Down syndrome cell adhesion molecule 2) | DRSC10285 | 82 | 49.3 | – | – | inactive
Dscam2 (Down syndrome cell adhesion molecule 2) | DRSC11018 | 90.4 | 81.3 | – | – | inactive
Dscam2 (Down syndrome cell adhesion molecule 2) | DRSC11019 | 103 | 76.6 | – | – | inactive
Dscam2 (Down syndrome cell adhesion molecule 2) | DRSC22526 | 92.1 | 85.2 | – | – | inactive
sut1 (sugar transporter 1) | DRSC07700 | 245 | 114 | – | – | inactive
Lpt (Lost PHDs of trr) | DRSC04291 | 153 | 207 | – | – | inactive
Lpt (Lost PHDs of trr) | DRSC04515 | 141 | 92.1 | – | – | inactive
Grip75 | DRSC03337 | 184 | 119 | – | – | inactive
CG31550 | DRSC12197 | 156 | 153 | – | – | inactive
CG31550 | DRSC12198 | 84 | 153 | – | – | inactive
ClpX (Caseinolytic protease chaperone subunit) | DRSC15592 | 134 | 212 | – | – | inactive
Usp32 (Ubiquitin specific protease 32) | DRSC10979 | 97.5 | 128 | – | – | inactive
Obp83a (Odorant-binding protein 83a) | DRSC12362 | 119 | 147 | – | – | inactive
Gs2 (Glutamine synthetase 2) | DRSC20250 | 93 | 121 | – | – | inactive
COX6B (Cytochrome c oxidase subunit 6B) | DRSC19590 | 140 | 118 | – | – | inactive
velo (veloren) | DRSC09698 | 103 | 119 | – | – | inactive
CG33791 + CG12105 + CG18170 | DRSC08387 | 166 | 103 | – | – | inactive
Tbc1d22 (TBC1 domain family member 22) | DRSC15867 | 199 | 352 | – | – | inactive
CG10555 | DRSC17748 | 227 | 133 | – | – | inactive
CG10555 | DRSC23202 | 114 | 153 | – | – | inactive
prage | DRSC17957 | 88.3 | 174 | – | – | inactive
prage | DRSC17958 | 62.3 | 84.5 | – | – | active
prage | DRSC18490 | 106 | 122 | – | – | inactive
prage | DRSC18497 | 132 | 158 | – | – | inactive
